This is an account of results in patent US20050153894A1 (Cyclacel Limited, priority 1999, published 2005).

Square brackets hold non-standard residues; d marks the D form. Phe(3-Cl) = N[C@@H](Cc1cccc(Cl)c1)C(=O)O; Phe(4-Cl) = N[C@@H](Cc1ccc(Cl)cc1)C(=O)O; Phe(4-F) = N[C@@H](Cc1ccc(F)cc1)C(=O)O; hArg = N=C(N)NCCCC[C@H](N)C(=O)O; 2Thi = N[C@@H](Cc1cccs1)C(=O)O; Phe(ol) = N[C@H](CO)Cc1ccccc1; hSer = N[C@@H](CCO)C(=O)O; Nle = CCCC[C@H](N)C(=O)O; Nva = CCC[C@H](N)C(=O)O; Abu = CC[C@H](N)C(=O)O; Aib = CC(C)(N)C(=O)O

The first series in a line: general procedure: Fmoc solid-phase peptide synthesis; Rink amide linker; 5-[4-(4-tolyl(chloro)methyl)phenoxy]pentanoyl aminomethylated polystyrene for some; PyBOP-, HBTU- or TBTU with HOBt and Pr2iNEt. To be noted: whole synthesis, 214 nm.
Consider H-HALRRLIF-NH2, for which the “purity (crude or final not stated)” value amounted to 97%.

H-His-Ala-Lys-Arg-Arg-leu-Ile Phe-NH2: the “purity (crude or final not stated)” value is listed as 100%. As to H-HAKRRLI[Phe(ol)], the “final HPLC purity” value is reported as 99%. Still for that read-out and setting: under “5,8-cyclic His-Ala-Lys-Arg-Lys-Leu-Phe-Gly” stands greater than 99%. In the case of H-His-Ala-Lys-Nle-Arg-Leu-Ile Phe-NH2, the “purity (crude or final not stated)” value was 86%. Same read-out and setting: the same measure for H-HAKRRLIL-NH2: 97%; for H-His-Ala-Lys-Arg-Sar-Leu-Ile Phe-NH2: 100%; for H-HAKRRLIF-NH2 [listing 1 of 2 here]: 99%.

Turning to “H-Asp Phe Tyr His Ala Lys Arg Arg Leu Ile Phe NH2”, the “purity (crude or final not stated)” value is recorded as greater than 95%.

On to H-HA[Nle]RRLIF-NH2, for which the “purity (crude or final not stated)” value worked out at 97%. As to H-HVKRRLIF-NH2, the “purity (crude or final not stated)” value was found to be 100%.

H-HIKRRLIF-NH2: the “purity (crude or final not stated)” value is reported as 100%.

In the case of H-ASn-Leu-Phe-Gly-NH2, the “purity (crude or final not stated)” value turned out to be 99%. For the substance H-His-Ser-Lys-Arg-Arg-Leu-Ile Dhp OH, the “final HPLC purity” value is 99%. The same measure, in the same setting: under H-His-Ala-Lys-Arg-Arg-Leu-Ile L-Psa OH stands 99%. With H-AAKRRLA[Phe(4-F)]-NH2, the “purity (crude or final not stated)” value was determined as 99%. On the same count and under the same terms, under H-His-Ala-Lys-Arg-Arg-Leu-Ile-1Nap-NH2 stands 100%. As to H-His-Ser-Lys-Arg-Arg-Leu-Ile D-Pse OH, the “final HPLC purity” value is on record as 99%. As to H-HAKRRVIF-NH2, the “purity (crude or final not stated)” value came to 100%. Still for that read-out and setting: under H-HAKRR[Nle]IF-NH2 stands 100%. Turning to H-His-Ala-Lys-Arg-Arg-Leu-IIe D-Pse OH, the “final HPLC purity” value is 99%.

Take H-HAKARLIF-NH2: the “purity (crude or final not stated)” value is 95%. As to H-HAKRRLLF-NH2, the “purity (crude or final not stated)” value turned out to be 100%. Same read-out and setting: under H-Ala-Abu-Arg-Asn-Leu-Phe-Gly-NH2 stands 99%; under H-Arg-Arg-Leu-Ile-Phe-NH2, 99%. The same measure, in the same setting: under H-Thi-Ala-Lys-Arg-Arg-Leu-Ile Phe-NH2 stands 100%. For H-His-Ala-Lys-Arg-Arg-Leu-Ile-2Nap-NH2, the “purity (crude or final not stated)” value was 100%. H-HFKRRLIF-NH2: the “purity (crude or final not stated)” value is 100%. Same read-out and setting: under H-Phe-Ala-Lys-Arg-Arg-Leu.Ile Phe-NH2 stands 100%; under H-His-Nva-Lys-Arg-Arg.Leu-Ile Phe.NH2, 100%; under H-Dab-Ala-Lys-Arg-Arg-Leu-Ile Phe-NH2, 100%. The same measure, in the same setting: under H-HA[Abu]RRLIF-NH2 stands 100%; under H-Hse-Ala-Lys-Arg-Arg-Leu-Ile Phe-NH2, 82%; under H-HAKQRLIF-NH2, 98%. Turning to H-AAKRRLIF-NH2, the “purity (crude or final not stated)” value amounted to 98%.

Turning to H-His-Ala-Lys-Arg-Arg-Leu-Ile L-Pse OH, the “final HPLC purity” value was 99%. With H-Pya-Ala-Lys-Arg-Arg-Leu-Ile Phe-NH2, the “purity (crude or final not stated)” value amounted to 98%. Still for that read-out and setting: the same measure for H-HAKRRLIK-NH2: 66%.

For the substance H-His-Ser-Lys-Arg-Arg-Leu-Ile L-Pse OH, the “final HPLC purity” value came to 99%. Take H-AAKQRLI[Phe(4-F)]-NH2: the “purity (crude or final not stated)” value was determined as 99%.

In the case of H-HAKRRLIF-NH2 [listing 2 of 2 here], the “purity (crude or final not stated)” value is 100%.

The series is the same for the next values; noted with them: whole synthesis, RP-HPLC, Vydac 218TP54, 214 nm.
In the case of H-Ala-Ala-Lys-Arg-Arg-Leu-Pgh-pFPhe-NH2, the “purity (crude or final not stated)” value was 88%. As to H-AAKRRLG[Phe(4-F)]-NH2, the “purity (crude or final not stated)” value worked out at 84%. Same read-out and setting: the same measure for H-AAKRTLFG-NH2: 90%. On the same count and under the same terms, under H-AAKRRL[Aib][Phe(4-F)]-NH2 stands 95%. In the case of H-AAKR[Nva]LI[Phe(4-F)]-NH2, the “purity (crude or final not stated)” value came to 93%. With H-Ala-Ala-Lys-Arg-Arg-Leu-2Nap-Gly-NH2, the “purity (crude or final not stated)” value was determined as 95%. The same measure, in the same setting: the same measure for H-AAK[hSer]RLFG-NH2: 90%; for H-AAKRRL[Phe(4-Cl)]G-NH2: 95%; for H-Ala-Ala-Lys-Arg-Arg-Hof-Ile-pFPhe-NH2: 88%. On the same count and under the same terms, the same measure for H-AAKRRLFK-NH2: 95%; for H-AAKRRMFG-NH2: 93%.

Regarding H-AAKRRLFS-NH2, the “purity (crude or final not stated)” value was found to be 95%. On the same count and under the same terms, under H-AAKRRL[Phe(3-Cl)]G-NH2 stands 95%. On the same count and under the same terms, under H-Ala-Ala-Lys-Arg-Arg-Hof-Phe-Gly-NH2 stands 81%; under H-AAKRRL[Phe(4-Cl)]F-NH2, 95%. The same measure, in the same setting: the same measure for H-AAK[hArg]RLFG-NH2: 93%.

Take H-GAKRRLI[Phe(4-F)]-NH2: the “purity (crude or final not stated)” value amounted to 94%.

As for H-AAKRRL[Phe(4-F)]G-NH2, the “purity (crude or final not stated)” value came out at 95%. On the same count and under the same terms, the same measure for H-Ala-Ala-Lys-Arg-Arg-Leu-Inc-Gly-NH2: 90%. Still for that read-out and setting: under H-AAKRRLS[Phe(4-F)]-NH2 stands 85%; under H-AAKRRL[2Thi]F-NH2, 95%; under H-AAKSRLI[Phe(4-F)]-NH2, 87%. Take H-AAKRRLP[Phe(4-F)]-NH2: the “purity (crude or final not stated)” value stood at 90%. Same read-out and setting: under H-AAKSRLFG-NH2 stands 95%; under H-AAKR[hSer]LI[Phe(4-F)]-NH2, 90%; under H-Ala-Ala-Lys-Arg-Arg-Leu-Ile-Inc-NH2, 95%.

The same series, now with this note: whole synthesis, w.r.t. initial resin loading.
For “5,8-cyclic His-Ala-Lys-Arg-Lys-Leu-Phe-Gly”, the isolated yield is 6.5%.
